Measurements as given in patent US11898097B2, “Modified acid compositions as alternatives to conventional acids in the oil and gas industry” (priority 2017, dated 2024).
Where “and” joins values, the source holds several entries; their conditions need not be identical. Equal entries are not always repeated. Structures can show the parent of a compound that is named as a salt.

Experiments:
[1] = Comparative corrosion testing on 1018 steel coupons; settings: 110° C., 6 hours, corrosion package none
[2] = Dissolution testing, calcium carbonate; settings: 23° C.
[3] = Wormholing testing (matrix acidizing experiments); settings: optimal condition, Buijse and Glasbergen model fit

Structure (SMILES) | Loss wt. [1] | Mils/yr [1] | mm/year [1] | Weight Loss/g ([2]; listed as HCl 15%) | PVbt-opt (optimal pore volume to breakthrough) [3] | Vi-opt (optimal interstitial velocity) [3] | Weight Loss/g [2]
Cl [15% HCl, hydrochloric acid] | 25.722 g | 45436.180 Mils/yr | 1154.079 mm/year | 10.7119 g and 9.5133 g | 0.46 | 1.97 | –
Cl [HCl 28%, hydrochloric acid] | – | – | – | – | – | – | 19.011 g and 21.16 g
